The experiment addresses T1, EGFP-tagged CD180 (human) (UniProt Q99467).
T1 sequence: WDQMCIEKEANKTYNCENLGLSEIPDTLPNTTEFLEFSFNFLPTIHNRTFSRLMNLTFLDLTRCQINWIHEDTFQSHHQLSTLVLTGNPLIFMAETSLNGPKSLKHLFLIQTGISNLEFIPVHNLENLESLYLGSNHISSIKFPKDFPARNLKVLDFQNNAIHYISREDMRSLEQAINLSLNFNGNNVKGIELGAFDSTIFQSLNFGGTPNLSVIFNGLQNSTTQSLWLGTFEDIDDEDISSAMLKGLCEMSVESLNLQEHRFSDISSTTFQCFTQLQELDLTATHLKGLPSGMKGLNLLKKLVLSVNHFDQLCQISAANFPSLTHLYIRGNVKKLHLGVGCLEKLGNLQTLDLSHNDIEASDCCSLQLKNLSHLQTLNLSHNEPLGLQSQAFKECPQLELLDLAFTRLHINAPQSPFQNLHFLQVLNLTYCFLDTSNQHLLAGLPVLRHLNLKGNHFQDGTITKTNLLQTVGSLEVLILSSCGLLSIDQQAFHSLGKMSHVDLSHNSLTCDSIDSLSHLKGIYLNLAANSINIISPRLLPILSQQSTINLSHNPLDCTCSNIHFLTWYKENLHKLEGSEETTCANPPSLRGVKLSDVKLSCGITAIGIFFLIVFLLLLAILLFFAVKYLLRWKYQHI
As to the kind of experiment: co-IP; HEK cells transiently co-transfected with APP-tagged PIM-1L and EGFP-tagged CD180; precleared lysates immunoprecipitated with anti-GFP antibody and Protein G Sepharose; blot with anti-PIM-1.

Sequences of proteins named here, by UniProt entry; tags and fusion partners are left off. A change or cut given only in a name is not applied to a line headed by its entry. A line that says so, or that is headed by a name, gives the form on record, which may keep a tag or linker.
UniProt P11309: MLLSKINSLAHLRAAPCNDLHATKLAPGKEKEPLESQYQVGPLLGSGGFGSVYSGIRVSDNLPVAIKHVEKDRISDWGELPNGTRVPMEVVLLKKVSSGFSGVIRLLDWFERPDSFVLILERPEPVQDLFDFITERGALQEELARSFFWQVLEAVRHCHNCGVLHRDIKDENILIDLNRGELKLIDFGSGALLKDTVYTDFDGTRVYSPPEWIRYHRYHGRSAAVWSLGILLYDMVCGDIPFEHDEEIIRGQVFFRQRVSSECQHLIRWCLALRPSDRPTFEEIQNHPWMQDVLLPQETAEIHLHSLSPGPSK
APP-tagged PIM-1L (P11309-2, form named): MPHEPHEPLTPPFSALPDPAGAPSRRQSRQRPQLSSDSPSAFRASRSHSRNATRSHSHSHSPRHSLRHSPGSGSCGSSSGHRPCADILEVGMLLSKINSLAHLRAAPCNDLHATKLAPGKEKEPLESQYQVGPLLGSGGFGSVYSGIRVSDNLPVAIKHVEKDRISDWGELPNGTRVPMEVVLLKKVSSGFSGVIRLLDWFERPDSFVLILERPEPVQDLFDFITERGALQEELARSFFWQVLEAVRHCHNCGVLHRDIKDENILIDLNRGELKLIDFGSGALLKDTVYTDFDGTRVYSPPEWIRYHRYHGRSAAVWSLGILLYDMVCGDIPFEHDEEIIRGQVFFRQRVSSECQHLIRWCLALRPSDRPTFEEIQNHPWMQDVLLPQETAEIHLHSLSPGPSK

No constants are given. Whether binding was seen depends on the method and setting. In cells and extracts the contact can be indirect. Some binding calls cover weakened binding; strength is not graded here. Sequences can lack the tags named with a protein.

Consider “APP-tagged PIM-1 short form (from UniProt P11309 1-313) (enzyme)”, for which the binding result is listed as “binds”.

“APP-tagged PIM-1L (from UniProt P11309-2 1-404) (enzyme)”: the binding result is listed as “binds”.

The values above are taken from publication PMC4640547.
